Data taken from US20230263801A1, “COMBINATION THERAPY OF PARP INHIBITORS” (IMPACT THERAPEUTICS (SHANGHAI), INC, priority 2020, published 2023).
At least one structure is not confirmed: it was looked up by name or label, or the drawing left a doubt.

Amino acid sequences for entries named in this document (tags omitted).
UniProt P09874, whole entry: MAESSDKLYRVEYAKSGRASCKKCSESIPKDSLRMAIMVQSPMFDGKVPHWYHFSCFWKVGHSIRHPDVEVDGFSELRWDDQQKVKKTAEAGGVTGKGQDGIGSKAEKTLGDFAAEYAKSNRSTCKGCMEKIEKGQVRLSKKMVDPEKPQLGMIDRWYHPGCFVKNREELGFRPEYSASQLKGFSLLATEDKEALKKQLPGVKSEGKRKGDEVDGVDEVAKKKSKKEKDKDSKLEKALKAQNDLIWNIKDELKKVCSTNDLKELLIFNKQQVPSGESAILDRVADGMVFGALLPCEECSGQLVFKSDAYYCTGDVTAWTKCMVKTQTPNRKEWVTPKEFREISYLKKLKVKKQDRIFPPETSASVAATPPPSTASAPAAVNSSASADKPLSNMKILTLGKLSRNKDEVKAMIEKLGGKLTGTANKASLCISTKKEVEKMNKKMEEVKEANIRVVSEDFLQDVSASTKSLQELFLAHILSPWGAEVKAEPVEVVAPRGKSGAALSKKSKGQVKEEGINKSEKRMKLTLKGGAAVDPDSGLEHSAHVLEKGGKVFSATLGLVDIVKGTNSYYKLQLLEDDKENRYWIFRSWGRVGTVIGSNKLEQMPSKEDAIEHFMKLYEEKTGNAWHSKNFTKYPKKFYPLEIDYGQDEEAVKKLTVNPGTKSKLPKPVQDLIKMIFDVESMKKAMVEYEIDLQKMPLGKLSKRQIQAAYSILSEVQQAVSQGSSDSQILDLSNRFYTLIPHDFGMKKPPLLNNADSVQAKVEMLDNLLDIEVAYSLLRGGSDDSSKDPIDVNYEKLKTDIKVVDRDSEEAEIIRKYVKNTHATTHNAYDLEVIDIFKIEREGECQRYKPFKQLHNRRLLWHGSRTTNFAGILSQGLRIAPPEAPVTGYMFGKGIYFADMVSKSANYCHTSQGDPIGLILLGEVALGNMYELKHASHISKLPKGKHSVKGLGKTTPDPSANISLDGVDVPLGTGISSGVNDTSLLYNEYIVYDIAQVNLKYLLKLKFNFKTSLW

Key:
[1] = test system: NCI-H209 human small cell lung cancer xenograft tumor; assay: In vivo efficacy of IMP4297 combined with TMZ in NCI-H209 xenograft tumor model; design: species or system nude mice; settings: single agent: TMZ 3 mg/kg; IMP4297 10 mg/kg
Description: The anti-tumor efficacy of the compound IMP4297 combined with TMZ was evaluated in the NCI-H209 human small cell lung cancer xenograft tumor model in nude mice. For this purpose, human small cell lung cancer NCI-H209 cells were inoculated into the subcutaneous breast area of the right axilla of nude mice. The cell inoculation amount was 2×10^6 logarithmic growth phase cells. The inoculated mice were used after transplanted tumors were formed. Vigorously growing tumor tissues were cut into small pieces of 1×1×1 mm^3, and inoculated under the skin of the breast area of the right axilla of each BALB/c nude mouse. When the average tumor volume reached about 124.08 (57.16-280.79) mm^3, nude mice were randomly grouped according to the tumor volume and were administered the drugs.
After grouping and drug treatment start, the weight of nude mice was weighed twice a week and recorded. Weight change (%)=(Wt−W1)/W1×100%, wherein W1 is the body weight measured at the time of grouping administration (i.e D1), and Wt is the weight of the recording day. […] The tumor diameter (length and width) was measured twice a week with a vernier caliper. The tumor volume (length×width^2/2) and the relative tumor volume RTV=Vt/V1 were calculated, wherein V1 is the tumor volume at the time of grouping administration (i.e. D1), and Vt is the tumor volume at each measurement. […]

[2] = test system: human colon cancer SW620 xenograft; settings: human colon cancer SW620 xenograft model; cited from earlier work
PARP1 = PARP1 (Homo sapiens, UniProt P09874); assay: PARP1 trapping in HCT116 cells treated with TMZ (Western blot of chromatin-bound proteins, ImageJ); type: cell-based; design: endogenous in cells; host or cells: HCT116; settings: TMZ 1 mM alone (IMP4297 0 μmol/L), 4 hours
Description: Colorectal carcinoma HCT116 cells were used in the experiment Cells in exponential growth phase were trypsinized and seeded to 10 cm cell culture plate at a density about 10-20% confluency After two days when cell density reached 70-80%, the cell culture was replaced with fresh medium containing vehicle, 0.1 μM or 10 μM of IMP4297 either in the presence or absence of 1 mM TMZ. Cells were treated for 4 hours. Chromatin-bound proteins were extracted according to the “Subcellular Protein Fractionation Kit for Cultured Cells (Thermo, LOT78840)” protocol.
PARP trapping was detected using SDS-PAGE electrophoresis followed by Western blot Extracted chromatin-bound protein samples were mixed with 5×SDS-PAGE solution and heated for 5 min at 100° C. Equal amount (25-30 μg) of protein was loaded to each lane on a pre-made SDS-PAGE gel (Genscript SurePAGE™, Bis-Tris, 4-20%, 15 wells M00657). Anti-PARP1 antibody (ABCAM ab227244) used in the study was 1:1000 diluted, anti-Histone 113 antibody (ABCAM ab1791) was 1.5000 diluted and anti-rabbit IgG HRP-linked Antibody (CST 7074s) was 1:2000 diluted. The bands were detected by standard Western blot protocol.

## Cn1nnc2c(C(N)=O)ncn2c1=O [TMZ, Temozolomide]
[1]
  inhibitory effect on tumor growth versus vehicle: no significant inhibitory effect on tumor growth
[2]
  effective dose as a single agent: 50 mg/kg
PARP1
  grey density value of PARP1 band: 193
